These are yes or no findings as the source states them, for the method shown. Binding seen in cells or lysates may run through a third protein. For some assays here: Binding calls can cover weak binding; strength is not graded here.
How the values were obtained:
Assay in all cases: co-IP; HEK293T with ectopic overexpression of Flag-TRPS1 or its truncation mutants (N, ΔC, C, ΔN, GATA); blots for HDAC2 and USP4
[1] = target: Flag-TRPS1-GATA(2641–2940)
Flag-TRPS1-ΔC(1–2940) = target: Flag-TRPS1-ΔC(1–2940)
Flag-TRPS1-ΔN(2641–3885) = target: Flag-TRPS1-ΔN(2641–3885)
Flag-TRPS1-C(2941–3885) = target: Flag-TRPS1-C(2941–3885)
Flag-TRPS1-N(1–2640) = target: Flag-TRPS1-N(1–2640)

B1: USP4 in HEK293T cells of the TRPS1 truncation co-IP (enzyme, UniProt Q13107 1-963)
chain: MAEGGGCRERPDAETQKSELGPLMRTTLQRGAQWYLIDSRWFKQWKKYVGFDSWDMYNVGEHNLFPGPIDNSGLFSDPESQTLKEHLIDELDYVLVPTEAWNKLLNWYGCVEGQQPIVRKVVEHGLFVKHCKVEVYLLELKLCENSDPTNVLSCHFSKADTIATIEKEMRKLFNIPAERETRLWNKYMSNTYEQLSKLDNTVQDAGLYQGQVLVIEPQNEDGTWPRQTLQSKSSTAPSRNFTTSPKSSASPYSSVSASLIANGDSTSTCGMHSSGVSRGGSGFSASYNCQEPPSSHIQPGLCGLGNLGNTCFMNSALQCLSNTAPLTDYFLKDEYEAEINRDNPLGMKGEIAEAYAELIKQMWSGRDAHVAPRMFKTQVGRFAPQFSGYQQQDSQELLAFLLDGLHEDLNRVKKKPYLELKDANGRPDAVVAKEAWENHRLRNDSVIVDTFHGLFKSTLVCPECAKVSVTFDPFCYLTLPLPLKKDRVMEVFLVPADPHCRPTQYRVTVPLMGAVSDLCEALSRLSGIAAENMVVADVYNHRFHKIFQMDEGLNHIMPRDDIFVYEVCSTSVDGSECVTLPVYFRERKSRPSSTSSASALYGQPLLLSVPKHKLTLESLYQAVCDRISRYVKQPLPDEFGSSPLEPGACNGSRNSCEGEDEEEMEHQEEGKEQLSETEGSGEDEPGNDPSETTQKKIKGQPCPKRLFTFSLVNSYGTADINSLAADGKLLKLNSRSTLAMDWDSETRRLYYDEQESEAYEKHVSMLQPQKKKKTTVALRDCIELFTTMETLGEHDPWYCPNCKKHQQATKKFDLWSLPKILVVHLKRFSYNRYWRDKLDTVVEFPIRGLNMSEFVCNLSARPYVYDLIAVSNHYGAMGVGHYTAYAKNKLNGKWYYFDDSNVSLASEDQIVTKAAYVLFYQRRDDEFYKTPSLSSSGSSDGGTRPSSSQQGFGDDEACSMDTN
binding [1]: no binding | binding (Flag-TRPS1-ΔC(1–2940)): binds | binding (Flag-TRPS1-ΔN(2641–3885)): binds | binding (Flag-TRPS1-C(2941–3885)): no binding | binding (Flag-TRPS1-N(1–2640)): no binding

Source: PMC6090974
